In patent publication US20070123569A1, “THERAPEUTIC METHODS USING PROSTAGLANDIN EP4 AGONIST COMPONENTS” (ALLERGAN, INC., priority 2005, published 2007):
At least one compound was matched to its structure with a doubt left.

Tests used:
[1] = system: C57BL/6 mice; test: Indomethacin-induced stomach lesions in mice (gross lesion count and histopathologic score); type: in vivo, mouse; conditions: indomethacin 20 mg/kg, FIG. 6
[2] = system: gastric mucous cells; test: BrdU immunostaining of stomach tissue sections from indomethacin-dosed mice; type: in vivo, mouse; conditions: given prior to indomethacin, FIG. 7
Description: Each of prostagiandin EP4 agonist 1 and PGE 1 analog Misoprostol was given to C57BL/6 mice at two or three concentrations. Twenty four (24) hours and 30 minutes later, the NSAID indomethacin was given at 20 mg/kg to induce stomach lesions and stomach inflammation. Twenty four (24) hours after indomethacin dosing, the mice were sacrificed and the stomach lesions were scored histopathologically and by gross lesion count.
BrdU immunostaining was performed on stomach tissue sections from mice treated with the prostaglandin EP4 agonist 1 and the PGE1 analog Misoprostol. Incorporation of BrdU label, as detected with positive BrdU immunostaining, is indicative of cell growth/regeneration. The abilities of prostaglandin EP4 agonist 1 and the PGE1 analog Misoprostol to regenerate gastric epithelial cells when given prior to indomethacin dosing were compared. The mean percentages of BrdU label incorporated cells in stomach tissue sections and the standard errors of the means from both treatments are shown in FIG. 7.

CCCCC(C)(O)C/C=C/[C@H]1[C@H](O)CC(=O)[C@@H]1CCCCCCC(=O)OC (mixture of isomers) [Misoprostol]
effect on indomethacin-induced injury to stomach tissue, histopathologic score (in words) [1]: significant alleviation
restoration of regenerative ability of gastric mucous cells, BrdU label (in words) [2]: did not
